These are yes or no findings as the source states them, for the method shown. In cells and extracts the contact can be indirect. These calls come from enrichment with a bait or labelling near it, and not all partners need be listed.
Target: T1, NRF2 (human (endogenous in HUVECs)) (UniProt Q16236)
T1 sequence: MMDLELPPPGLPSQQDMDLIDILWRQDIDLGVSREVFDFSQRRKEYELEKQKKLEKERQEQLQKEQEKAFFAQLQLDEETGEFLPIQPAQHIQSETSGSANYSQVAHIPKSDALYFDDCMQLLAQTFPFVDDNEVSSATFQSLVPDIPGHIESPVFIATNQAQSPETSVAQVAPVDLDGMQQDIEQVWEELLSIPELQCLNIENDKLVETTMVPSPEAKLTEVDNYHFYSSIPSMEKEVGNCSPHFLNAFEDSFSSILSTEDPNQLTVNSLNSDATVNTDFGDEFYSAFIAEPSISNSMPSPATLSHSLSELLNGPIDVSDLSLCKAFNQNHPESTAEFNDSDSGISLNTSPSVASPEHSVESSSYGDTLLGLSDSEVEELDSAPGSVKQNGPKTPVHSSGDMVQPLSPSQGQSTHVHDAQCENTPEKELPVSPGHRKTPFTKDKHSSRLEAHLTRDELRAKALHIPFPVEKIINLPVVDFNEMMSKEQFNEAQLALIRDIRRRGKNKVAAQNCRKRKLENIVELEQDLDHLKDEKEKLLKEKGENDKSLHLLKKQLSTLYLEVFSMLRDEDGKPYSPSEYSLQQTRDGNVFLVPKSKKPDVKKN
Assay: affinity purification with mass spectrometry; anti-NRF2 immunoprecipitation from HUVECs at 5 mM and 25 mM glucose, Coomassie Brilliant Blue staining, protein mass spectrometry

By UniProt entry, the sequences of proteins in these tests, tags left out.
UniProt Q99814: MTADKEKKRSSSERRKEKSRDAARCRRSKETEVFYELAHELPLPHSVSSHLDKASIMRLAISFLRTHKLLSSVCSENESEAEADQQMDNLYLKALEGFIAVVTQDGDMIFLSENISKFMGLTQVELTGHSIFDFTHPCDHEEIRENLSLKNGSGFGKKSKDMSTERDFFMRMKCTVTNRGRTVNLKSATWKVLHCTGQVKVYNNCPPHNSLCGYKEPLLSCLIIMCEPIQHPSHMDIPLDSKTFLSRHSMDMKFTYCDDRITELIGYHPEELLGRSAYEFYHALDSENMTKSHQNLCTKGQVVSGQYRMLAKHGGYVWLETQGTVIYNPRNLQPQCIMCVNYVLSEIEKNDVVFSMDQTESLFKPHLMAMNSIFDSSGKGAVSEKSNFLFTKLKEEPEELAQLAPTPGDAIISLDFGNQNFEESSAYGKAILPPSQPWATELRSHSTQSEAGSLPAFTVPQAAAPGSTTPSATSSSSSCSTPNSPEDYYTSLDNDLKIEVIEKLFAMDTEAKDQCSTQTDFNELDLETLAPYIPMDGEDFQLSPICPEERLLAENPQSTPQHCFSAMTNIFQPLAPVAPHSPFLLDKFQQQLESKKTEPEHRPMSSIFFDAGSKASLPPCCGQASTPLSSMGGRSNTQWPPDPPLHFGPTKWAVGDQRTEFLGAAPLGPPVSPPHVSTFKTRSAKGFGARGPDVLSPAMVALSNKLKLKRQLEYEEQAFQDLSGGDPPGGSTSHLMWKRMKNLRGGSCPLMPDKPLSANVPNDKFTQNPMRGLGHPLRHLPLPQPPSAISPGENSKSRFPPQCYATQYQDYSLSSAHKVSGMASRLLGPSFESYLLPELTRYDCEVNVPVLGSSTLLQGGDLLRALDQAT

binding: binds
Substance: HIF-2α (from UniProt Q99814 1-870)
